Assay [1] has as its target AtC53 IDR (264-341) (Arabidopsis thaliana) (UniProt Q9FG23). The assay is described as follows: NMR titration; unlabeled protein or peptide (50-300 μM) added to 100 μM 15N-labeled protein; 1H-15N HSQC, 25°C, 50 mM sodium phosphate pH 7.0, 100 mM NaCl, 10% D2O; both purified.
Assay [2] concerns the target AtUFM1 (purified) (Arabidopsis thaliana). Described as above.

Protein sequences, listed by entry. Tags and fused reporters are not part of them. Lines headed by an entry give the natural chain unless they say otherwise; changes in a name come on top.
UniProt Q9FG23: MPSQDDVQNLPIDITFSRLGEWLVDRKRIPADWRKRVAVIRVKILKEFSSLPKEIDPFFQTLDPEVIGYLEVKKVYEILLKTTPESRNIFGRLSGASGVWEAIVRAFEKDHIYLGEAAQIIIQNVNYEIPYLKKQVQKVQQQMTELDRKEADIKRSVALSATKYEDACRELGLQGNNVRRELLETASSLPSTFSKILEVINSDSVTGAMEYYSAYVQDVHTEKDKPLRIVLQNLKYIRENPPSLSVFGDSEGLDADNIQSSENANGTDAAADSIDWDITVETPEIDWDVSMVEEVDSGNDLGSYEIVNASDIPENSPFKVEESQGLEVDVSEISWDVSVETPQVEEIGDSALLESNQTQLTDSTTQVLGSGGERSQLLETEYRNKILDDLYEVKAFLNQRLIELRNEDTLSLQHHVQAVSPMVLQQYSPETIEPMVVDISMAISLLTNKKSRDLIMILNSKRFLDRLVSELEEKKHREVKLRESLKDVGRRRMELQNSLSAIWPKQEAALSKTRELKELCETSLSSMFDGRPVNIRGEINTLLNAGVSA

No constants are given. Whether binding was seen depends on the method and setting. A result given as binding can be weak or reduced; the word gives no strength.

B1: ATG8A (purified) (protein, UniProt Q8LEM4 1-117)
chain: MAKSSFKISNPLEARMSESSRIREKYPDRIPVIVEKAGQSDVPDIDKKKYLVPADLTVGQFVYVVRKRIKLGAEKAIFVFVKNTLPPTAALMSAIYEEHKDEDGFLYMTYSGENTFG
Turning to B1, in assay [1], the binding result is “binds”.

Regarding GPLHDDNEWNISVVDD [AtUBA5 LIR peptide], the binding result in assay [2] was “binds”.

For the origin of these results see article PMC10183829, “Shuffled ATG8 interacting motifs form an ancestral bridge between UFMylation and autophagy” (The EMBO Journal, 2023).
